Experiment [1] deals with extracellular LRR domain protein of PXL2 (PXL2^LRR) (Arabidopsis thaliana). Description: SEC; purified PXL2^LRR incubated with a pool of chemically synthesized peptides with a free C-terminal histidine or asparagine; gel filtration; bound peptide in the peak fraction detected by MALDI-TOF MS; both purified. (In general: Size exclusion chromatography separates by hydrodynamic size, large species first.)

The target is the same in experiment [2]. Kind of experiment: ITC; twenty injections of peptide solution titrated into PXL2^LRR in the ITC cell; both purified. Background: ITC needs no label: the signal is the heat of the interaction.

These are yes or no findings as the source states them, for the method shown. For some assays here: A result given as binding can be weak or reduced; the word gives no strength.

For HGVPSGPNPISN (hydroxyproline (Hyp) at positions 4 and 7) [CLE42], the binding result in experiment [1] is recorded as “binds”.

In the case of RLVPSGPNPLHH (hydroxyproline (Hyp) at positions 4 and 7) [CLE13], the binding entry in experiment [2] is “no binding”.
